Some of the results follow. The main result of the screen is listed elsewhere. These columns were measured beside it and carry no call. Compounds called inactive in the main read-out are mostly missing here.
test: insulin gene promoter suppression in islet cells – imaging, TRM-6 cells (human fetal islet line), eGFP reporter, cell count, primary screen (AID 1273;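 further: cells exposed to compound for 48 h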); settings: measured here: cell count, toxicity, at 2 µM, reporter expression induced with tamoxifen

SMILES	normalized cell count [%]
Cc1nc2c(Cl)cc(Cl)cc2[nH]1	170
CCOC(=O)/C(=C/c1ccc(N2CCC(c3ccccc3)=N2)cc1)C(C)=O	74.3
O=C(NNC(=O)c1cccc2ccccc12)c1ccc(-c2ccccc2)cc1	152
O=[N+]([O-])c1ccccc1/C=C\C=N\N1CCN(c2ccccc2)CC1	69.6
COc1ccc(Nc2nc(N)nc(CSc3nncn3C)n2)cc1	94.3
COC(=O)c1ccc(-c2nc3ccccc3[nH]2)cc1	125
COC(=O)c1[nH]c2ccccc2c1NC(=O)CN1CCN(C(=O)c2ccco2)CC1	79.8
Cc1ccc(CNS(=O)(=O)NCc2cccs2)cc1	97.1
O=S(=O)(c1ccc(Nc2ccc3c(c2)OCO3)nc1)N1CCOCC1	176
CCc1c(O)nc(SCC(=O)Nc2ccccc2C)[nH]c1=O	129
Cc1cc(C)c2c(N)c(C(=O)c3ccc(Cl)c(Cl)c3)sc2n1	103
COc1ccc(CC(=O)NCc2n[nH]c(=S)n2-c2cccc(C)c2)cc1	60.9
CC(C)(C)c1ccc(-c2nnc(SCC(=O)NC3CCS(=O)(=O)C3)n2N)cc1 (centres undefined)	82.4
O=C(Nc1nc2ccccc2s1)C1CC(=O)N(c2ccc(Br)cc2)C1 (centres undefined)	118
CC(=O)N1N=C(c2cccs2)CC1c1ccc(C)o1 (centres undefined)	88.8
C=CCNc1ncnc2c1[nH]c1ccc(Cl)cc12	149
COc1ccc(F)cc1S(=O)(=O)N1CCCN(S(=O)(=O)c2cc(F)ccc2OC)CC1	117
C[C@H]1O[C@@H](O[C@H]2[C@@H](O)C[C@H](O[C@H]3[C@@H](O)C[C@H](O[C@H]4CC[C@@]5(C)[C@H](CC[C@@H]6[C@@H]5C[C@@H](O)[C@]5(C)[C@@H](C7=CC(=O)OC7)CC[C@]65O)C4)O[C@@H]3C)O[C@@H]2C)C[C@H](O)[C@@H]1O	0
O=C(NCc1nc(-c2ccccc2)no1)c1ccc(Br)o1	154
CCOC(=O)Cn1c(=O)c2c(nc(N3CCOCC3)n2C)n(C)c1=O	90.2
NS(=O)(=O)c1ccc(NC(=O)C2Cc3ccccc3C(=O)O2)cc1 (centres undefined)	52.9
Cc1ccc2c(c1)C(=NC1CCCCC1)c1cc3ccccc3nc1-2	137
CC(NC(=O)C12CC3(C)CC(C)(CC(C)(C3)C1)C2)C(=O)O (centres undefined)	121

Retrieved by structure from the list above:
SMILES	normalized cell count [%]
Cc1ccc(CNS(=O)(=O)NCc2cccs2)cc1	97.1
CC(C)(C)c1ccc(-c2nnc(SCC(=O)NC3CCS(=O)(=O)C3)n2N)cc1 (centres undefined)	82.4

Later entries

SMILES	normalized cell count [%]
CCc1cc(=O)oc2c(CN3CCCC3)c(O)c(Cl)cc12	97.8
Cc1ccc(Cn2nnnc2CN2CCC(O)(c3cccnc3)CC2)cc1	86.6
Cc1cc(C)c2c(N)c(C(=O)c3ccc(Cl)cc3)sc2n1	105
Cc1c(C(=O)c2ccc(Cl)c([N+](=O)[O-])c2)c2ccccn2c1CCC#N	130
CC(C)c1cc(C(=O)Nc2ccc3c(c2)OCO3)no1	126
CCc1ccc2[nH]c3nc(C)cc(C)c3c(=O)c2c1	127
COc1cccc(N=c2oc3ccccc3cc2-c2nc3ccccc3[nH]2)c1	150
CCN1C/C(=C\c2cccc([N+](=O)[O-])c2)C(=O)/C(=C/c2cccc([N+](=O)[O-])c2)C1	0.56
Cn1c(=O)c2c(nc(NCC3CCCO3)n2Cc2ccccc2)n(C)c1=O (centres undefined)	10.8
CCOC(=O)C1(C)C=C(Nc2ccc(C)cc2)C(=O)N1c1ccc(C)cc1 (centres undefined)	144
Cc1ccc(-c2cn3cccc(C)c3n2)cc1	126
CCOc1ccccc1NC(=O)COn1nnc2ccccc21	111
CCCNc1ncccc1C(N)=O	67.4
O=C1C2ON(c3ccccc3)C(c3ccncc3)C2C(=O)N1c1ccccc1 (centres undefined)	134
CCOC(=O)c1cnn(C(=O)c2ccccc2)c1N	63.2
CC1Cc2nc(SCC(=O)OCc3ccccc3)n(C)c(=O)c2S1 (centres undefined)	48.4
COc1nc(NCc2ccco2)nc(NC2CCCCC2)n1	112
CCOC(=O)N1CCN(c2ccc(Cl)cc2)CC1	121
O=C(Nc1nnc(SCC(=O)N2CCCCC2)s1)C1CCCCC1	67.6
Cc1ccc(C2c3c(oc4ccccc4c3=O)C(=O)N2c2nnc(C)s2)o1 (centres undefined)	107
CCCc1cc(C(=O)Nc2sc(C)c(CC)c2C#N)no1	106
CCCn1c(N)c(C(=O)CSc2nc(C)cs2)c(=O)[nH]c1=O	118
COc1cccc(NC(=S)/C(=C(\[O-])c2ccc(C)c([N+](=O)[O-])c2)[n+]2ccccc2)c1	118

SMILES	normalized cell count [%]
CCOC(=O)C1CCCN(C(=O)CCc2ccccc2)C1 (centres undefined)	72.8
CC1(CCc2ccccc2)NC(=S)N(c2ccc(Cl)cc2)N1 (centres undefined)	103
C/C(CCc1oc2ccc(Cl)cc2c1-c1ccc(C)o1)=N\O	128
CC(C)OC(=O)c1c(NC(=O)CCC(=O)O)sc2c1CCCCC2	97.8
O=C(CNC(=O)c1ccccc1C(=O)O)c1ccccc1	37.3
O=C1c2ccccc2C(=O)N1CC(O)CNc1ccc(Br)cc1 (centres undefined)	68.4
CCCC(=O)NCCc1cc2cc(C)c(C)cc2[nH]c1=O	137
CN1CCN(C(=S)NC(=O)c2ccc(C(C)(C)C)cc2)CC1	120
CCN(CC)C(=O)c1ccc2nc(-c3ccccc3)c(-c3ccccc3)nc2c1	218
O=S(=O)(N1CCOCC1)n1c(Cc2ccccc2)nc2ccccc21	11.4
NNC(=O)CCc1ccc(S(=O)(=O)N2CCOCC2)cc1	93.7
Cc1nc2ccc(NC(=O)N3CCSCC3)cc2nc1C	184
CCN(CC)C(=O)CSc1nc(-c2ccc(C)cc2)nc2c1COC(C)(C)C2	84.5
CCOC(=O)CN1C(=O)N[C@@H](c2ccccc2)C(C(C)=O)=C1C	75.5
CCc1nc2oc3cc(OC)ccc3c(=O)c2c(=O)n1Cc1ccccc1	109
Cc1ccc(Oc2nnc(-c3cccs3)c3ccccc23)cc1	114
Cc1ccccc1CS(=O)(=O)c1nnc([C@H](Cc2ccccc2)NC(=O)OC(C)(C)C)o1	87.8
O=C(c1ccccc1)c1ccc2nc[nH]c2c1	75.4
CCOc1ccccc1N/C=C(\C#N)c1nc2ccccc2n1C	101
CCn1c(NC(=O)c2ccco2)c(-c2ccccc2Cl)c(=O)c2ccccc21	69.4
CC(C)(C)c1nc2ccccc2[nH]1	195
CSc1ncccc1C(=O)OCC(=O)c1ccccc1	119
C=CCn1c(C)cc(C(=O)COC(=O)CNC(=O)c2ccccc2)c1C	86.3

SMILES	normalized cell count [%]
Cc1ccc(Nc2c(-c3ccc(N4CCOCC4)cc3)nc3ncccn23)cc1C	107
Cc1[nH]n(-c2ccccc2)c(=O)c1C(c1ccc(O)c([N+](=O)[O-])c1)c1c(C)[nH]n(-c2ccccc2)c1=O	49.8
CCN(C(=O)c1cn(C)c(=O)c2cc(OC)c(OC)cc12)c1ccccc1C	118
CC(C)N1CCc2c(sc(NC(=O)c3ccc(S(=O)(=O)N4CCOCC4)cc3)c2C#N)C1	60.9
O=C(O)C1C2CCC(O2)C1C(=O)NCc1ccc(Cl)cc1 (centres undefined)	90.3
COc1ccc(C2CC(c3cccs3)Nc3nnnn32)cc1 (centres undefined)	120
CNC(=O)/C=C1\NC(C)(C)Cc2ccccc21	118
COc1ccc(N(CC(=O)Nc2nccs2)S(=O)(=O)c2c(C)[nH]c(=O)[nH]c2=O)cc1	80.4
c1ccc(-c2noc(-c3cccnc3)n2)nc1	55.5
CNC(=O)C(=O)N/N=C/c1ccc(Br)cc1	58.3
Cc1nc2ccc(S(=O)(=O)NCC(=O)N3CCCC(C)C3)cc2s1 (centres undefined)	95.6
c1ccc2c(c1)[nH]c1c(NCC3CCCO3)ncnc12 (centres undefined)	145
O=C1Nc2ccc(F)cc2C12Nc1ccccc1-c1nnc(SCc3ccccc3)nc1O2 (centres undefined)	90.7
COc1ccc2sc(NC(C)=O)nc2c1	99.7
C=C(C)CSc1nc2ncccc2[nH]1	176
c1ccc(CCNc2ccc3nncn3n2)cc1	68.7
CCOC(=O)c1[nH]c2ccccc2c1NC(=S)Nc1cc(C)ccc1C	70
CCNC(=O)N1CCOCC1	60.3
Cc1ccc(CN2CCN(c3ccccn3)CC2)s1	102
CC(=O)NC(C)C(=O)OCC(=O)Nc1ccc(Br)cc1 (centres undefined)	28.9
Cc1ccc(OCc2ccc(C(=O)Nc3ccc(C(N)=O)cc3)o2)c([N+](=O)[O-])c1	90.8
c1ccc(-c2cc(-c3ccccc3)n3ncnc3n2)cc1	82.3
COc1cccc(Nc2nc3ccc(OC)cc3s2)c1	106

SMILES	normalized cell count [%]
O=C(CCC(=O)c1cccs1)NCc1ccc(Cl)cc1	105
O=C(Oc1ccc2c(=O)c(Cl)coc2c1)c1ccncc1	117
Cc1ccc(-c2csc(NC(=O)Cc3ccc(F)cc3)n2)o1	163
CCCOc1ccc(/C=N/Nc2ccccc2[N+](=O)[O-])c(OCCC)c1	97.3
CC1CCN(C(=O)CSc2nnc(Cc3cccn3C)n2-c2ccc(F)cc2)CC1	54.9
COc1ccc(S(=O)(=O)c2nnn(-c3ccccc3Cl)c2N)cc1	125
Cc1nn(C(=O)c2ccco2)c(C)c1Br	67.9
c1ccc(-c2nc(-c3ccncc3)no2)cc1	132
Cc1nc(CSc2nnc(C)s2)cs1	108
CCn1c(-c2cccs2)nc2ccccc21	153
Cc1ccc(C(=O)CSc2nc(C)cc(C)c2C(N)=O)cc1	107
O=C(Nc1ccn(Cc2ccc(Cl)cc2)n1)c1ccc2c(c1)OCO2	99.4
COc1cccc(Nc2nc3ccccc3n2C(C)C)c1	113
C=CCc1c(C)[nH]c(=O)[nH]c1=O	87.4
CCc1ccc(/C=C2/C(=O)N(CC)C(=S)N2C)s1	86.2
CC1=C(C(=O)N2CCCCCC2)C2(CCC(C)CC2)OC1=O (centres undefined)	192
Cc1ccc(OCCCCn2ccnc2)c(Cl)c1	60.2
CC(C)CCN1C(=O)c2ccc(C(=O)Nc3cccc(S(N)(=O)=O)c3)cc2C1=O	51.5
COc1ccc2c3c(cccc13)NN=C2C	15.4
CCOc1ccc(C(=O)NC2=NCCS2)cc1	41.7
CCC(C)(C)C(=O)Nc1ccc(OC)cc1[N+](=O)[O-]	0
CCOc1ccc(-c2nnn(CC(=O)N3CCCC3)n2)cc1OCC	56
